These are yes or no findings as the source states them, for the method shown. In cells and extracts the contact can be indirect. Some entries that bind do so weakly or less than the wild type.
Key:
[1] = molecular target: Flag-tagged N-CoR (nuclear receptor co-repressor) (UniProt O75376); assay: co-IP; protease-depleted fractionates of H2170 cells incubated with flag-tagged N-CoR (extract of transfected 293T cells) in IP buffer (40 mM Tris-HCl pH 7.4, 150 mM NaCl, 0.5 mM EDTA, 0.75 mM MgCl2, 0.25% NP-40), 4°C; anti-flag M2 affinity gel; blot with Hsc70 antibody
[2] = molecular target: Hsc70 (human (endogenous in H2170)) (UniProt P11142); assay: co-IP; lysates of vehicle or Kaletra treated (5 µM, 96 hours) H2170 cells; Hsc70 antibody and protein G beads, 4°C; blot with N-CoR antibody

Protein sequences, listed by entry. Tags and fused reporters are not part of them.
UniProt O75376: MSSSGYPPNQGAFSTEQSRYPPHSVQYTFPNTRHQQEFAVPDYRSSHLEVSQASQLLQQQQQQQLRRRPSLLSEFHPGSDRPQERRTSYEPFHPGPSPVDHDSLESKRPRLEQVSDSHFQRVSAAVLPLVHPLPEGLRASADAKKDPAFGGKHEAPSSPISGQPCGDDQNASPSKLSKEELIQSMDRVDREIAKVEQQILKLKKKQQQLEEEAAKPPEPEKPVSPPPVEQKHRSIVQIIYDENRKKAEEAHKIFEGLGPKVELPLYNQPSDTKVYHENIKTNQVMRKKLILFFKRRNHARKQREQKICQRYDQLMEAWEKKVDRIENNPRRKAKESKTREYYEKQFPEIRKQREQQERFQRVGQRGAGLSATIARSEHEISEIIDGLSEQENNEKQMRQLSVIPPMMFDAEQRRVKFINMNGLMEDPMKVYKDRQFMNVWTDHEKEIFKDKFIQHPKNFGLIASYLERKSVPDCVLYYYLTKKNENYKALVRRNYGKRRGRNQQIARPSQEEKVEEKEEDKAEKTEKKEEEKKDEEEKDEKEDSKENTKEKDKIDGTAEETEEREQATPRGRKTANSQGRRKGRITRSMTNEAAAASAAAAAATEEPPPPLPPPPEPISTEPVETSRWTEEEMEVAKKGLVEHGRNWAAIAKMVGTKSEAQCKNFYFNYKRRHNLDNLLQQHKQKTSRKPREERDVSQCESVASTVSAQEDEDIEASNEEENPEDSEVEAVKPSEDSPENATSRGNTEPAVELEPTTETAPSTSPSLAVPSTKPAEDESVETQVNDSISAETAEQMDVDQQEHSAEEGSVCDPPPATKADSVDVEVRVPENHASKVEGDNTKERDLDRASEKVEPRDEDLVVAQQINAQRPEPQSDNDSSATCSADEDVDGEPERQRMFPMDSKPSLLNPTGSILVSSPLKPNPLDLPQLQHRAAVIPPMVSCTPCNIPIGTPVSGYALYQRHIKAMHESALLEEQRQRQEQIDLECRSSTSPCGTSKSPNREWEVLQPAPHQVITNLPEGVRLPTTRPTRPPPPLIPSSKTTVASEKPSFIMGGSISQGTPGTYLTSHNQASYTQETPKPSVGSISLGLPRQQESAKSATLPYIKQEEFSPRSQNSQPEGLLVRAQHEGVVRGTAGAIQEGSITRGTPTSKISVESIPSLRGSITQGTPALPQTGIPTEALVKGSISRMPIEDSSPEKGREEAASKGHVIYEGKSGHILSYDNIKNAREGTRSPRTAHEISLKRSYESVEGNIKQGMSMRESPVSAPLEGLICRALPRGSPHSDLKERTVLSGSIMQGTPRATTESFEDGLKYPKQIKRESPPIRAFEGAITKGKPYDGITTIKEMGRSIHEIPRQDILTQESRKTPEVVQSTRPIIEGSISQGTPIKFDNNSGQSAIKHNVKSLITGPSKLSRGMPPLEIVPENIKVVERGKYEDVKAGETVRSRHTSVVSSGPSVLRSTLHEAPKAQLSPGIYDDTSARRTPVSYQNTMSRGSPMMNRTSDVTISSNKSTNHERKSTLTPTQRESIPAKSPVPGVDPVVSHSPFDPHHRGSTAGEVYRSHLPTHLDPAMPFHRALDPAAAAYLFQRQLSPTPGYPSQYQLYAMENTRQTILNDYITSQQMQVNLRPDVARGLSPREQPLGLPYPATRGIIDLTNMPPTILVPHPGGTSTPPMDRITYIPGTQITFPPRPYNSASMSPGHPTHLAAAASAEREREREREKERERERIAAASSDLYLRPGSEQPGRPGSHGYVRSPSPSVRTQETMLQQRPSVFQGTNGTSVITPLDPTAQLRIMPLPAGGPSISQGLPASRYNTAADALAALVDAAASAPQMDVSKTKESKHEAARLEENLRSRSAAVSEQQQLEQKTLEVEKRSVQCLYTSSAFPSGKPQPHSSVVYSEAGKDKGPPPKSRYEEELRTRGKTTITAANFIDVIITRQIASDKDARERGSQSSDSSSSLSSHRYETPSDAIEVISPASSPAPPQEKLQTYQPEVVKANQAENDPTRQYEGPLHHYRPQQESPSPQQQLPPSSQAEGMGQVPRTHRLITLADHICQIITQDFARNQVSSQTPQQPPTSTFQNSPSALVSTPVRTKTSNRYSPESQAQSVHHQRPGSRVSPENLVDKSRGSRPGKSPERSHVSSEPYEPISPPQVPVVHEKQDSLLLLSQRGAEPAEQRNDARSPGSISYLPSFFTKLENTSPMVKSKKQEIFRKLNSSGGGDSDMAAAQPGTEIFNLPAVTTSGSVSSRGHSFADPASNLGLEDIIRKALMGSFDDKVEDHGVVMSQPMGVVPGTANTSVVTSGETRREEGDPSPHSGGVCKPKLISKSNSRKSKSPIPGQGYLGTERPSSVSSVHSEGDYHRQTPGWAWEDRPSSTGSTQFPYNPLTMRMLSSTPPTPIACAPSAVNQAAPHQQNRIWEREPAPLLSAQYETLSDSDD
UniProt P11142: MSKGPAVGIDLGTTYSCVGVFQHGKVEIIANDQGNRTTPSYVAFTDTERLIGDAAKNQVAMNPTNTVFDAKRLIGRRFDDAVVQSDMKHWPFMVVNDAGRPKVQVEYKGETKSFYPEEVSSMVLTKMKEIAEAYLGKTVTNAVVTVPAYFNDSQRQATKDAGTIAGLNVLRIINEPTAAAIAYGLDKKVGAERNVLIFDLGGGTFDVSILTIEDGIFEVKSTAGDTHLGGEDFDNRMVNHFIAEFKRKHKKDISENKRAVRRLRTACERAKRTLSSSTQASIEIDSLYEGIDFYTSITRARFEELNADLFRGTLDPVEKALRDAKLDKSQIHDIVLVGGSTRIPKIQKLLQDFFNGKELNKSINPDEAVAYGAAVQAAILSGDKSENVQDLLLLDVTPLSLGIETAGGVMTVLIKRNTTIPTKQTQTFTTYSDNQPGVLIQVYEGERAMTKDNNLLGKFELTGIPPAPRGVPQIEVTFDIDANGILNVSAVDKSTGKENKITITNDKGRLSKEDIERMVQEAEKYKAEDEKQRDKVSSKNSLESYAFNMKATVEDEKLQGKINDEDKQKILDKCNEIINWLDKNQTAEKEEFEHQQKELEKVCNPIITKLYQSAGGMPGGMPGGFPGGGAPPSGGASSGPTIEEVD

Row | Substance | binding [1] | binding [2]
1 | Hsc70 (from UniProt P11142 1-646) | binds | –
2 | Nuclear receptor co-repressor (N-CoR), endogenous in H2170 cells (from UniProt O75376 1-2440) | – | binds
